# Library screening results

Amino acid sequences for entries named in this document (tags omitted).
UniProt E9BF75, entry or part of it: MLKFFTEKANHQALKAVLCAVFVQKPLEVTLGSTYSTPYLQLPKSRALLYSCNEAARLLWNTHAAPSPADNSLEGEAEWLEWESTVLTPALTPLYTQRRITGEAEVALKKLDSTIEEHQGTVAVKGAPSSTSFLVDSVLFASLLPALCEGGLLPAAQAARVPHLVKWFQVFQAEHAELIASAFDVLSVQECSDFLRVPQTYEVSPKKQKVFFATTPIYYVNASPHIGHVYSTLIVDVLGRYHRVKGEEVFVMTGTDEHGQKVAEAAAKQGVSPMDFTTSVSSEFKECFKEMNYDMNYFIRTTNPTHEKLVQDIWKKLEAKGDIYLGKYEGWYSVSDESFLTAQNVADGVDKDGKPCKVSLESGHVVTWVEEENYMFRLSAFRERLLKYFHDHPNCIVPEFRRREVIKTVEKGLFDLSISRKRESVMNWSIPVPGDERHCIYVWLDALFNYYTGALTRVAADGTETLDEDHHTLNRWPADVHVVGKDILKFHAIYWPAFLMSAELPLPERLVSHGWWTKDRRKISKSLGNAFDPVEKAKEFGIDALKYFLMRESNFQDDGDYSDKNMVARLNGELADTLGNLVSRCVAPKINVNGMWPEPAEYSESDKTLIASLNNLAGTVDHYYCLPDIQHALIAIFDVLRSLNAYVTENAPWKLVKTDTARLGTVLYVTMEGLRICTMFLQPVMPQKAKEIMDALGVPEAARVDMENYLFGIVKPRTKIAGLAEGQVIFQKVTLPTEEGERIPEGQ

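Primary screen of methionyl-tRNA synthetase; the read-out is not stated. Target: Methionyl-tRNA synthetase (putative), Leishmania donovani (UniProt E9BF75). The test concentration is not given. The values are filed as inhibition. About 68,000 compounds were tested under these conditions; 0.035% (about 24) showed 50% or more at least once.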

All values are in %.
The controls that fix the scale are not given in the record; negative values are as filed.
Compounds were drawn at random from those tested, without regard to their results.

| # | SMILES | inhibition |
|---|---|---|
| 1 | `CCOCC1COCCC12CCN(C(=O)C1=CCCC1)CC2` (stereo not given) | 16.3% |
| 2 | `CCCc1cnc(C)nc1N1CCC(Cn2cc(C(C)O)nn2)CC1` (stereo not given) | 4.732% |
| 3 | `CC(c1ccccc1)N(C)C(=O)Cn1cc(NC(=O)C(C)(C)C)cn1` (stereo not given) | 23.39% |
| 4 | `COc1cc(I)c(Cl)cc1C(=O)N(C)C` | 9.329% |
| 5 | `O=C(COc1ccccc1)N(Cc1ccncc1)C1CC1` | 12.81% |
| 6 | `C[C@@H]1CN(C(=O)CSc2nncn2C)C[C@@]1(O)C1CC1` | 14.25% |
| 7 | `Cc1noc(C)c1CN1C[C@H](OCc2ccncc2)[C@H]2OCCC[C@H]21` | 16.43% |
| 8 | `O=C(CSc1ccc(Br)cc1)NS(=O)(=O)c1ccc2c(c1)OCCO2` | -0.5464% |
| 9 | `Cc1nc(CN2C(=O)COC3(CCN(CC4CC4)CC3)C2C)cs1` (stereo not given) | 17.18% |
| 10 | `N#Cc1cccc(CNCCNC(=O)Cc2cccc(F)c2)c1` | 1.994% |
| 11 | `O=C(CC1CCCO1)NCc1ccccc1Cn1cncn1` (stereo not given) | 13.39% |
| 12 | `CCN(C(=O)NCc1cccnc1N(C)C)C(C)c1cccnc1` (stereo not given) | 12.9% |
| 13 | `CN(C)c1nccc(C2CN(c3cnccn3)CCO2)n1` (stereo not given) | 2.83% |
| 14 | `CN(CC(N)=O)Cc1c(Cl)ccc2cccnc12` | 2.747% |
| 15 | `CNc1ccnc(N2C[C@@H](C)[C@](O)(C3CC3)C2)n1` | 10.14% |
| 16 | `CCC(NC(=O)c1ccco1)c1nc(C(F)(F)F)cs1` (stereo not given) | 14.66% |
| 17 | `O=c1[nH]c(C2CCOC2)nc2cc(F)c(F)cc12` (stereo not given) | 14.37% |
| 18 | `CN1CC(=O)N(c2cccc(F)c2)CC12CCN(Cc1ccco1)C2` (stereo not given) | 12.06% |
| 19 | `O=C(CCC(=O)N1CCOCC1c1ccccc1)c1cccs1` (stereo not given) | 10.65% |
| 20 | `COCCC(=O)N(C)CCC1=CCN(C)CC1` | 12.7% |
| 21 | `CC1CCN(C(=O)c2ccc(N(C)Cc3cnn(C)c3)nc2)CC1` | 14.21% |
| 22 | `CCC(=O)NC1CCCN(C(=O)c2ccc(OCC3CC3)nc2)C1` (stereo not given) | 6.211% |
| 23 | `CO[C@@H]1CC[C@H]2[C@H]1OCCN2S(=O)(=O)c1cn(C)cn1` | 7.299% |
| 24 | `CC(NCC(=O)N(C)C1CC1)c1ccc(S(C)(=O)=O)c(F)c1` (stereo not given) | 7.796% |
| 25 | `Cc1cc(C)nc(NCc2cc3n(n2)CCCN(C(=O)C2CCC2)C3)n1` | 17.18% |
| 26 | `O=C(c1cc(F)cc2[nH]cnc12)N1CCCCC1Cn1cccn1` (stereo not given) | 15.86% |
| 27 | `Cc1cc(CC(=O)NCC(O)COc2ccc(F)c(F)c2)no1` (stereo not given) | 14.03% |
| 28 | `CN(C)C[C@H]1C[C@@H]2CN(C(=O)c3ccco3)C[C@@H]2O1` | 10.87% |
| 29 | `CN(C)C(=O)CCS(=O)(=O)Cc1cc(Cl)c2c(c1)OCCO2` | 6.15% |
| 30 | `CCN1CCN(c2ccc(F)cc2C(C)NCc2cscn2)CC1` (stereo not given) | 8.541% |
| 31 | `CCn1ncc(Cl)c1CN(C)C(=O)CCn1ncc(Br)c1C` | 4.348% |
| 32 | `Cc1ccc(S(=O)(=O)Cc2noc([C@@H]3C[C@@H](O)CN3C)n2)cc1` | 10.99% |
| 33 | `COCCN1CC2(CCCN(C(=O)NCc3ccccc3)C2)CCC1=O` (stereo not given) | 14.25% |
| 34 | `Cc1ccc(CNC(=O)Nc2nnc(C(C)C)s2)n1C` | 14.65% |
| 35 | `Cc1nc(CN2CCOCC3(CCCN(c4cnccn4)C3)C2)cs1` (stereo not given) | 5.185% |
| 36 | `O=C(c1cnc(C2CC2)nc1O)N1CCN(Cc2ccccc2F)CC1` | 14.08% |
| 37 | `CC(C)c1nc(CN(C)C2CCCN(c3cccnn3)C2)no1` (stereo not given) | 14.53% |
| 38 | `CCOC1COC2(CCN(Cc3cccc(F)c3)CC2)C1` (stereo not given) | 14.48% |
| 39 | `Cc1noc([C@@H]2C[C@H]3OCC[C@H]3N(C(C)C)C2)n1` | 15.34% |
| 40 | `O=C(NCCc1ccc(F)cc1)NC1CCCc2c1cnn2CCO` (stereo not given) | 13.26% |
| 41 | `CN1CC(=O)N(c2cnn(C)c2)CC12CCN(Cc1cccnc1)C2` (stereo not given) | 9.375% |
| 42 | `COc1ccc(S(=O)(=O)N2CCC(Cn3ccnc3)CC2)cc1` | 19.9% |
| 43 | `CN1C(=O)C[C@H]2[C@H]1CCN2Cc1cccc(C#N)c1` | 14.93% |
| 44 | `Cc1ccc(CN(C)C(=O)CN2CCOC(Cn3cccn3)C2)o1` (stereo not given) | 22.95% |
| 45 | `Nc1cc2c(nn1)CCN(C(=O)CC1CCCCC1)C2` | 20.56% |
| 46 | `COCCN(Cc1cnn(C)c1)Cc1ccc(C)o1` | 14.64% |
| 47 | `COC[C@H]1CCC[C@]12CN(S(=O)(=O)c1cccs1)CCO2` | 9.42% |
| 48 | `COCC(O)CNc1ccc(C#N)cc1C(F)(F)F` (stereo not given) | 16.06% |
| 49 | `Cc1cc(C(=O)N2CC[C@@]3(O)CCN(S(C)(=O)=O)C[C@H]3C2)c(C)n1C` | 13.55% |
| 50 | `CCCn1c(=O)n(CCC(=O)N(C)Cc2ccc(C)o2)c2ccccc21` | 2.21% |
| 51 | `Cn1cnc(S(=O)(=O)N2C[C@H](OCC3CC3)[C@H]3OCCC[C@H]32)c1` | 6.643% |
| 52 | `CC(=O)N1CCC(C(=O)NC(C)c2cccc(OC(F)F)c2)CC1` (stereo not given) | 9.946% |
| 53 | `Cc1cnc(CN(C)C2CCN(Cc3nccn3C)C2)o1` (stereo not given) | 13.58% |
| 54 | `CC(C)NC(=O)N1CC(=O)c2sc(Nc3ccc(C#N)cc3)nc2C1` | 10.44% |
| 55 | `COCCCNC(=O)CCn1ncc2c(Cl)cccc21` | -6.281% |
| 56 | `COc1cc(N2CCc3ncnc(-c4ccoc4)c3CC2)ncn1` | 12.28% |
| 57 | `O=C(CC1CC1)N1C[C@@H](O)[C@H](N2CCN(c3ccccc3)CC2)C1` | 9.302% |
| 58 | `c1coc(CN2CC[C@@H]3O[C@@H](COCC4CCOCC4)CC[C@@H]32)c1` | 19.63% |

6 of the entries, repeated:

SMILES,inhibition
COCCN(Cc1cnn(C)c1)Cc1ccc(C)o1,14.64%
O=C(CCC(=O)N1CCOCC1c1ccccc1)c1cccs1 (stereo not given),10.65%
CN(CC(N)=O)Cc1c(Cl)ccc2cccnc12,2.747%
CCN(C(=O)NCc1cccnc1N(C)C)C(C)c1cccnc1 (stereo not given),12.9%
CNc1ccnc(N2C[C@@H](C)[C@](O)(C3CC3)C2)n1,10.14%
O=C(CC1CC1)N1C[C@@H](O)[C@H](N2CCN(c3ccccc3)CC2)C1,9.302%

Source: ChEMBL document CHEMBL3988442, “University of Dundee, Small-Polar-MMV Screening Library” (2021).